# Measured values published in the supplement of paper PMC10849652.
# Chains of the proteins cited; added tags and fusions are not shown. Lines headed by an entry give the natural chain unless they say otherwise; changes in a name come on top.
# UniProt Q13123, whole entry, looked up: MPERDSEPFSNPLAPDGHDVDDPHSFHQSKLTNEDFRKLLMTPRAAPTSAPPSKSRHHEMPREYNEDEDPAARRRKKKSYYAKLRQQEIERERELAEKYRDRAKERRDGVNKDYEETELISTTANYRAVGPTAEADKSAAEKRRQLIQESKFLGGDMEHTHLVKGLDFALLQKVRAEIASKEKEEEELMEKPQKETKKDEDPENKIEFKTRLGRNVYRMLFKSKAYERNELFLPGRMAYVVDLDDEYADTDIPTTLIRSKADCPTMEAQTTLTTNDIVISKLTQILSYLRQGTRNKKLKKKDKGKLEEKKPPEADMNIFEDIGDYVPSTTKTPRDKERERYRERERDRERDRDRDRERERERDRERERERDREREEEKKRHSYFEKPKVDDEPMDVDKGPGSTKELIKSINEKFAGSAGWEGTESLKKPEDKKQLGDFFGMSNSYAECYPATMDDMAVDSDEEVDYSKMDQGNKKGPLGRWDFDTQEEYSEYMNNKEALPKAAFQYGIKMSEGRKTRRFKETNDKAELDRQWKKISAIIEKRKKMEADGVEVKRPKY
# UniProt Q9P2H3, whole entry, looked up: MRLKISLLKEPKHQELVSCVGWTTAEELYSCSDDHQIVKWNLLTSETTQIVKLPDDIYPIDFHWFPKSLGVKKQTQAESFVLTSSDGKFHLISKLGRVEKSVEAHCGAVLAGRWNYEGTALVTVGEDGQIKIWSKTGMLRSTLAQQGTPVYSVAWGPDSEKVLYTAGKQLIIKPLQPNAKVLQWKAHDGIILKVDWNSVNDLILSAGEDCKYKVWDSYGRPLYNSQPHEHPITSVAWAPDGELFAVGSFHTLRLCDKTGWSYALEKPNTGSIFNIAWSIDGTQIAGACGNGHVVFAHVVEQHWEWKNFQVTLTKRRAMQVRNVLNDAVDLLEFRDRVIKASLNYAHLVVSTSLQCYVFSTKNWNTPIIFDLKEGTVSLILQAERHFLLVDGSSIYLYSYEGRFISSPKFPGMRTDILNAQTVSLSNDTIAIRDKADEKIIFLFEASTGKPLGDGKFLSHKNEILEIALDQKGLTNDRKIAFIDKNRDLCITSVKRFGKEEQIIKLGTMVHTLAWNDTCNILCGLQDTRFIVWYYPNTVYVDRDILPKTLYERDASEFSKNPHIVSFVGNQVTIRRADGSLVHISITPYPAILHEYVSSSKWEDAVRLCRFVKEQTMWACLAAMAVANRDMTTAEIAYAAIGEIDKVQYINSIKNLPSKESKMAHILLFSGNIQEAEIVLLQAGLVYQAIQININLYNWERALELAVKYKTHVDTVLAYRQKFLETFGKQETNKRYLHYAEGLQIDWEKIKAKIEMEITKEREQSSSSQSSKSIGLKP
# UniProt A1L0T0: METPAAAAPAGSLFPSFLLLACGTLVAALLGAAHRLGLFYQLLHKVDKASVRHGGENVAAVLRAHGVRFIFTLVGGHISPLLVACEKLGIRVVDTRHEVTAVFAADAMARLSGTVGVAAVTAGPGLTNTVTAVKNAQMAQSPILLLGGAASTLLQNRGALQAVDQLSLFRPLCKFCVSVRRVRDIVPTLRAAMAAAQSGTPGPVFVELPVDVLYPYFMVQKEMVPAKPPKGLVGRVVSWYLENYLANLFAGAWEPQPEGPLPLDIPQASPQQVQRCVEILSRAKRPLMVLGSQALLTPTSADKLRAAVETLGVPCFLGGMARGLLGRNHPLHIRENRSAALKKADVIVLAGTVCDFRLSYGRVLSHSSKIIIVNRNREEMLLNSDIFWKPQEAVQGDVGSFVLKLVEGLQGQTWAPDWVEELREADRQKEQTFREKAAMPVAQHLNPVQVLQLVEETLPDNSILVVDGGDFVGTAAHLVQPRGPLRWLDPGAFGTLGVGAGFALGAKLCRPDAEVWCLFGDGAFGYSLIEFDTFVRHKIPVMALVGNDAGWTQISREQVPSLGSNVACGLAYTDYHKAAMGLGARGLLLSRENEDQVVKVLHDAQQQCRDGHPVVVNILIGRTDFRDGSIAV
# UniProt Q13418: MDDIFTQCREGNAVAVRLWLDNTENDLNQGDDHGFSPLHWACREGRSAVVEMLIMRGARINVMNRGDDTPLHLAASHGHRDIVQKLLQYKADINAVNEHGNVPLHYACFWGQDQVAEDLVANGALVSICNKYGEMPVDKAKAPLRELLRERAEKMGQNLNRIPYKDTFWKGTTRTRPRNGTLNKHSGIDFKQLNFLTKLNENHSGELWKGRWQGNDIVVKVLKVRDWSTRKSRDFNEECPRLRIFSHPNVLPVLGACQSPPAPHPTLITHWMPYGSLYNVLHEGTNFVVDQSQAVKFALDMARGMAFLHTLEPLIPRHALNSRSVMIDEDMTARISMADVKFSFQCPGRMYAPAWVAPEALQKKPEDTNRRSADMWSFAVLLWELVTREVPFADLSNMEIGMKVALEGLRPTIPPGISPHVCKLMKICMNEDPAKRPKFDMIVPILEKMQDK
# UniProt Q96LB3: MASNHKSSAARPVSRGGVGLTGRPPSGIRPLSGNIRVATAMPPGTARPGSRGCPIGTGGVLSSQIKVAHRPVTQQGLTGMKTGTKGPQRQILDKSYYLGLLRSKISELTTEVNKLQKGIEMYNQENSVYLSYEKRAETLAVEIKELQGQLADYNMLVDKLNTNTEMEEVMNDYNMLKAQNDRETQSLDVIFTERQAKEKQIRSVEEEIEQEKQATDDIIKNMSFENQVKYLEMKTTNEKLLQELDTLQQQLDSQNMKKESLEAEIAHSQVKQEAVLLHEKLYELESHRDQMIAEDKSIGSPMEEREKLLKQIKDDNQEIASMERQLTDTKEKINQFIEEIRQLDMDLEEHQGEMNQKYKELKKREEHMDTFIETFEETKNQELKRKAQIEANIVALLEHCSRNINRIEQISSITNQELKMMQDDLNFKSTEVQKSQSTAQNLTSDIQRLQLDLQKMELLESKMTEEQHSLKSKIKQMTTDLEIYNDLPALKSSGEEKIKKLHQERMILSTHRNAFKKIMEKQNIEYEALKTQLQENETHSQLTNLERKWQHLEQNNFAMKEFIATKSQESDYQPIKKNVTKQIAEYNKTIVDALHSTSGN
# UniProt Q16891: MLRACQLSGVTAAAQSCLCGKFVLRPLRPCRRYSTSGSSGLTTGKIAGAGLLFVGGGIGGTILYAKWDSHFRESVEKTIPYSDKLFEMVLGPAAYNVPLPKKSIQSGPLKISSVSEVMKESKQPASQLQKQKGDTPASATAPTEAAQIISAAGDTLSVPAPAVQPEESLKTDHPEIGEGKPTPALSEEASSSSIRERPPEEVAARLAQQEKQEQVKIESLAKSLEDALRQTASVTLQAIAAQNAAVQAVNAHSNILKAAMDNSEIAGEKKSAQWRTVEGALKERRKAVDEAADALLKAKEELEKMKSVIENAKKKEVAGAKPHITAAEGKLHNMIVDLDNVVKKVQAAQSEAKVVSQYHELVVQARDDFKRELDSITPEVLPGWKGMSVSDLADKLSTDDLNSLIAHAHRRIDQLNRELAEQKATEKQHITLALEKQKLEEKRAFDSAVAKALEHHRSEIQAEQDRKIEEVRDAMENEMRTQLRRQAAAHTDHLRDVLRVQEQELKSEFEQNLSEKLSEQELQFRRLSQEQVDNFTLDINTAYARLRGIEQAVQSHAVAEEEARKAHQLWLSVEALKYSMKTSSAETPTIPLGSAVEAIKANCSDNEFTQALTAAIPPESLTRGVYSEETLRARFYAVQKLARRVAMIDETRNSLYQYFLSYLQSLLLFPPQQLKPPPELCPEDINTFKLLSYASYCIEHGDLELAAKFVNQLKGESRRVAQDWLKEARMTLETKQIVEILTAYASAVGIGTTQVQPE
# UniProt Q9Y287, whole entry, looked up: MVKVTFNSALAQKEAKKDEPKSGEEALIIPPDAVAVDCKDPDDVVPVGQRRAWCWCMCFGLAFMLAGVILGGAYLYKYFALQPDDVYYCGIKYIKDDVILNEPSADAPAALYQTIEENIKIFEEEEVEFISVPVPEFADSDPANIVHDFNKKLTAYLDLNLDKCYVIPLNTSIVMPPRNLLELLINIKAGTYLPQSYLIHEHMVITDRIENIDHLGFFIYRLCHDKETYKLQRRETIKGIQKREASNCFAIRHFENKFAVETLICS
# UniProt P14316: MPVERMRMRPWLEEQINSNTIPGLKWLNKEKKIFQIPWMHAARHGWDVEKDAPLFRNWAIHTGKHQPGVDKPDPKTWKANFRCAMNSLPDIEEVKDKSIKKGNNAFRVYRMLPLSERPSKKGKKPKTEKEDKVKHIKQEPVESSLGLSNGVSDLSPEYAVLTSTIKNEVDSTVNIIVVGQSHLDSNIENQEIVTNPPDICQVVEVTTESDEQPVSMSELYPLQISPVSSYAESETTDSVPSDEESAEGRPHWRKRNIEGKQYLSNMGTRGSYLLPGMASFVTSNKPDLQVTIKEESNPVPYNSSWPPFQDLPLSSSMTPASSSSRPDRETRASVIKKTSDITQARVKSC
# UniProt P0DMQ5: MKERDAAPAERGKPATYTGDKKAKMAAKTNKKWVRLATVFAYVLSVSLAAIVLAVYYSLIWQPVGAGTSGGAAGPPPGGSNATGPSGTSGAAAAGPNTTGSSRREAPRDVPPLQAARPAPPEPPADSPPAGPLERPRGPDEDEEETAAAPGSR
# UniProt Q9UK53: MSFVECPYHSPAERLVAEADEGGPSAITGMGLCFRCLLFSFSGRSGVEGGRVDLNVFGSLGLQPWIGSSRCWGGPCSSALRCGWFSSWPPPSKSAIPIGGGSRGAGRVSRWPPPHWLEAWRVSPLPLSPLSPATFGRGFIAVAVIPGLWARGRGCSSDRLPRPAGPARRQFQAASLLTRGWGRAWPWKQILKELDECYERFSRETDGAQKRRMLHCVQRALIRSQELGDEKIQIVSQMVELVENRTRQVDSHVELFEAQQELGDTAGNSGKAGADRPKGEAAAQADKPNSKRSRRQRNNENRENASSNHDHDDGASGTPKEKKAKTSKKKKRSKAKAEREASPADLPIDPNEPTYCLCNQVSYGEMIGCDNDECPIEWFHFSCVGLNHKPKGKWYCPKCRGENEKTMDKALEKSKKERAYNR
# UniProt P49441: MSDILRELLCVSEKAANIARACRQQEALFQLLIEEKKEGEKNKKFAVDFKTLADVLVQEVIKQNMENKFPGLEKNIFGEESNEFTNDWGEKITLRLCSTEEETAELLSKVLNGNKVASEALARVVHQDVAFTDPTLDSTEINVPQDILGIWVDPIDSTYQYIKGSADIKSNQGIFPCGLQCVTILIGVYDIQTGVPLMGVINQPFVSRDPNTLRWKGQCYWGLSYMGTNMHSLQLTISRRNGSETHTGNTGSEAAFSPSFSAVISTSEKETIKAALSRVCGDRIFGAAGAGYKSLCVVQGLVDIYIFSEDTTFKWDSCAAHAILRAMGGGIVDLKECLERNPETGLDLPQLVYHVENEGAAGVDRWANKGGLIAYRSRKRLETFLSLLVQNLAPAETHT
# UniProt P18065: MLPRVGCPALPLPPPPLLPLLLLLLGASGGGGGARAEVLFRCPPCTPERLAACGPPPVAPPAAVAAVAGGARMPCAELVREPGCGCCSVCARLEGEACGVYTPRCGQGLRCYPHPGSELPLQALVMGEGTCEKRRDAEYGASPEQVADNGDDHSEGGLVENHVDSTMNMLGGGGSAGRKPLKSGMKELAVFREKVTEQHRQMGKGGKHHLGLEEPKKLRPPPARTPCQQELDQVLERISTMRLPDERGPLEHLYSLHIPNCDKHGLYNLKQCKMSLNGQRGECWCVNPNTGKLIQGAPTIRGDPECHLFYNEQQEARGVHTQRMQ
# UniProt Q9Y5U9: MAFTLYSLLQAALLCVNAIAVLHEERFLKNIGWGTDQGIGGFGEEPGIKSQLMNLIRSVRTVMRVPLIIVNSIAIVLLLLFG
# UniProt Q6UWB1, whole entry, looked up: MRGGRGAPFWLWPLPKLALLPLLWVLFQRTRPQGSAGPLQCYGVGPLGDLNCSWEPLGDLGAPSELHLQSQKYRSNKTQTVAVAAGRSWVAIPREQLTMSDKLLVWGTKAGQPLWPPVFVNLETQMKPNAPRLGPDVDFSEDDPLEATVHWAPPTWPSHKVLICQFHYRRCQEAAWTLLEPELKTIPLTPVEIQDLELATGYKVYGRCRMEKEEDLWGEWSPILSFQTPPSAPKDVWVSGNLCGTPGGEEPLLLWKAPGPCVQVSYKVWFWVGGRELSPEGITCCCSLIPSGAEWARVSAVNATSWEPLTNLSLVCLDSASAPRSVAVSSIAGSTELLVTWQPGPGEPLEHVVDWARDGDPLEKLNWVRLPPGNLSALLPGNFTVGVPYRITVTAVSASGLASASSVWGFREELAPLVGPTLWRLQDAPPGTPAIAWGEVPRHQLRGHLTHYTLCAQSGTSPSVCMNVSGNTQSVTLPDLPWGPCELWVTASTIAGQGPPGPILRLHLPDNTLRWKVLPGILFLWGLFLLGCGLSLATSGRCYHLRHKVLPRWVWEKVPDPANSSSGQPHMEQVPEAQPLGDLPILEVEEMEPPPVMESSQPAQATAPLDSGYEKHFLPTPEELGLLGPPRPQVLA
# The list shows a part of the results.
# Legend:
# Assay in all cases: log2 fold change, soluble protein after heating vs DMSO (PISA); higher = thermal stabilisation; K562 cells, 10 uM, 30 min; active = over 0.2 and 3.5 SD of the protein, either way, in both replicates (recomputed)
# [1] = compound: COC1=CC=C(C=C1)CN2C=CC3=C2C=C(C=C3)C(=O)NO
# How it was run: (§1)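 Soluble protein was defined as the supernatant after 21,000xg for 90 min. It came from K562 cells at 2×10^6 cells/mL given 10 μM compound for 30 min, heated in aliquots for 3 min across 48°C-58°C, pooled, and extracted in PBS with 0.5% NP-40 at 4°C, and was quantified by TMTpro 16plex LC-MS/MS with equalised channel sums. Thermal stability against control samples, from duplicates, is reported as log2 fold change.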
# filanesib = compound: CON(C)C(=O)N1N=C(c2cc(F)ccc2F)S[C@@]1(CCCN)c1ccccc1 [filanesib]
# How it was run: as §1
# zotarolimus = compound: CO[C@H]1C[C@@H]2CC[C@@H](C)[C@@](O)(O2)C(=O)C(=O)N2CCCC[C@H]2C(=O)O[C@H]([C@H](C)C[C@@H]2CC[C@H](n3cnnn3)[C@H](OC)C2)CC(=O)[C@H](C)/C=C(\C)[C@@H](O)[C@@H](OC)C(=O)[C@H](C)C[C@H](C)/C=C/C=C/C=C/1C [zotarolimus]
# How it was run: as §1
# idasanutlin = compound: COc1cc(C(=O)O)ccc1NC(=O)[C@@H]1N[C@@H](CC(C)(C)C)[C@](C#N)(c2ccc(Cl)cc2F)[C@H]1c1cccc(Cl)c1F [idasanutlin]
# How it was run: as §1
# alisertib = compound: COc1cc(Nc2ncc3c(n2)-c2ccc(Cl)cc2C(c2c(F)cccc2OC)=NC3)ccc1C(=O)O [alisertib]
# How it was run: as §1
# [2] = compound: COc1cc2nc(-c3cc(F)ccc3O)nc(N[C@@H]3CNC[C@H]3C(C)(C)O)c2cc1OC
# How it was run: as §1
# gefitinib = compound: COc1cc2ncnc(Nc3ccc(F)c(Cl)c3)c2cc1OCCCN1CCOCC1 [gefitinib]
# How it was run: as §1
# [3] = compound: COc1cccc2cc(-c3nc([C@H]4CC[C@H](C(=O)O)CC4)n4ncnc(N)c34)[nH]c12
# How it was run: as §1
# lapatinib = compound: CS(=O)(=O)CCNCc1ccc(-c2ccc3ncnc(Nc4ccc(OCc5cccc(F)c5)c(Cl)c4)c3c2)o1 [lapatinib]
# How it was run: as §1
# pictilisib = compound: CS(=O)(=O)N1CCN(Cc2cc3nc(-c4cccc5[nH]ncc45)nc(N4CCOCC4)c3s2)CC1 [pictilisib]
# How it was run: as §1
# [4] = compound: CS(=O)(=O)c1ccc(-c2cnc(N)c(C(=O)Nc3ccccc3)n2)cc1
# How it was run: as §1
# crizotinib = compound: C[C@@H](Oc1cc(-c2cnn(C3CCNCC3)c2)cnc1N)c1c(Cl)ccc(F)c1Cl [crizotinib]
# How it was run: as §1
# [5] = compound: C[C@@H]1COCCN1C2=NC(=NC(=C2)C3(CC3)S(=O)(=O)C)C4=C5C=CNC5=CC=C4
# How it was run: as §1
# [6] = compound: C[C@H](C1=CC=C(C=C1)C(=O)NC2=C3C=CNC3=NC=C2)N
# How it was run: as §1
# gandotinib = compound: Cc1cc(Nc2cc(CN3CCOCC3)c3nc(C)c(Cc4ccc(Cl)cc4F)n3n2)n[nH]1 [gandotinib]
# How it was run: as §1
# [7] = compound: Cc1cc(SCc2sc(-c3ccc(C(F)(F)F)cc3)nc2C)ccc1OCC(=O)O
# How it was run: as §1
# doramapimod = compound: Cc1ccc(-n2nc(C(C)(C)C)cc2NC(=O)Nc2ccc(OCCN3CCOCC3)c3ccccc23)cc1 [doramapimod]
# How it was run: as §1
# ispinesib = compound: Cc1ccc(C(=O)N(CCCN)[C@@H](c2nc3cc(Cl)ccc3c(=O)n2Cc2ccccc2)C(C)C)cc1 [ispinesib]
# How it was run: as §1
# tozasertib = compound: Cc1cc(Nc2cc(N3CCN(C)CC3)nc(Sc3ccc(NC(=O)C4CC4)cc3)n2)n[nH]1 [tozasertib]
# How it was run: as §1
# duvelisib = compound: C[C@H](Nc1ncnc2nc[nH]c12)c1cc2cccc(Cl)c2c(=O)n1-c1ccccc1 [duvelisib]
# How it was run: as §1
Target,log2 fold change [1],log2 fold change (filanesib),log2 fold change (zotarolimus),log2 fold change (idasanutlin),log2 fold change (alisertib),log2 fold change [2],log2 fold change (gefitinib),log2 fold change [3],log2 fold change (lapatinib),log2 fold change (pictilisib),log2 fold change [4],log2 fold change (crizotinib),log2 fold change [5],log2 fold change [6],log2 fold change (gandotinib),log2 fold change [7],log2 fold change (doramapimod),log2 fold change (ispinesib),log2 fold change (tozasertib),log2 fold change (duvelisib)
IK (UniProt Q13123),inactive: 0.056,inactive: 0.156,inactive: 0.007,inactive: 0.102,inactive: -0.044,inactive: 0.07,inactive: 0.027,inactive: -0.096,inactive: -0.008,inactive: -0.035,inactive: -0.041,inactive: 0.021,inactive: -0.037,inactive: 0.186,inactive: 0.022,inactive: -0.007,inactive: 0.016,inactive: 0.065,,
IFT80 isoform 3 (UniProt Q9P2H3),inactive: -0.128,inactive: -0.043,inactive: 0.003,inactive: -0.066,inactive: -0.039,inactive: 0.01,inactive: -0.07,inactive: 0.04,inactive: -0.038,inactive: 0.034,inactive: -0.019,inactive: -0.01,inactive: 0.069,inactive: -0.031,inactive: 0.053,inactive: 0.05,inactive: 0.069,inactive: -0.051,,
ILVBL (UniProt A1L0T0),inactive: -0.008,inactive: 0.006,inactive: 0.072,inactive: -0.106,inactive: -0.088,inactive: -0.001,inactive: 0.075,inactive: 0.082,inactive: -0.011,inactive: 0.031,inactive: 0.055,inactive: 0,inactive: 0.058,inactive: 0.061,inactive: 0.02,inactive: -0.005,inactive: -0.003,active: 0.213,,
ILK (UniProt Q13418),active: -0.444,inactive: 0.023,inactive: -0.052,inactive: 0.021,inactive: 0.038,inactive: 0.036,inactive: 0.007,inactive: 0,inactive: -0.05,inactive: 0.068,inactive: 0.054,inactive: 0.038,inactive: -0.001,inactive: 0.046,inactive: -0.039,inactive: -0.046,inactive: -0.023,inactive: -0.153,,
IFT74 (UniProt Q96LB3),inactive: 0.083,inactive: -0.014,inactive: 0.019,inactive: -0.058,inactive: -0.102,inactive: 0.339,inactive: 0.035,inactive: 0.024,inactive: -0.025,inactive: 0.052,inactive: 0.21,inactive: -0.04,inactive: 0.014,inactive: 0.088,inactive: -0.02,inactive: -0.094,inactive: 0.095,inactive: -0.133,,
IMMT isoform 2 (UniProt Q16891),inactive: 0.006,inactive: -0.101,inactive: -0.045,inactive: 0.04,inactive: -0.088,inactive: -0.25,inactive: -0.006,inactive: 0.017,inactive: -0.151,inactive: -0.238,inactive: -0.042,inactive: -0.152,inactive: 0.046,inactive: -0.115,inactive: -0.075,inactive: -0.087,inactive: -0.034,inactive: -0.031,,
ITM2B (UniProt Q9Y287),inactive: -0.109,inactive: 0.092,inactive: -0.042,inactive: -0.03,inactive: 0.083,inactive: -0.037,inactive: -0.047,inactive: 0.138,inactive: -0.116,,inactive: 0.065,inactive: -0.193,inactive: -0.032,inactive: 0.038,,inactive: -0.032,inactive: 0.043,inactive: 0.131,,
IRF2 (UniProt P14316),inactive: -0.009,inactive: 0.003,inactive: 0,inactive: 0.162,inactive: 0.089,inactive: -0.17,inactive: 0.015,inactive: 0.039,inactive: 0.188,inactive: -0.231,inactive: 0.039,inactive: 0.05,,inactive: -0.17,inactive: 0.091,,inactive: 0.003,inactive: 0.059,inactive: 0.042,
IRF3 (UniProt Q14653),inactive: -0.075,inactive: -0.141,inactive: 0.021,inactive: -0.073,inactive: -0.085,inactive: -0.08,inactive: 0.011,inactive: 0.023,inactive: -0.003,inactive: 0.053,inactive: -0.146,inactive: 0.007,inactive: 0.056,inactive: -0.027,inactive: -0.068,inactive: 0.053,inactive: -0.038,inactive: 0.022,,
INAFM2 (UniProt P0DMQ5),inactive: -0.162,inactive: -0.144,inactive: 0.005,inactive: -0.058,inactive: 0.022,inactive: -0.091,inactive: 0.001,inactive: 0.082,inactive: 0.016,,inactive: 0.033,inactive: 0.456,inactive: -0.017,inactive: -0.017,,,inactive: -0.136,inactive: 0.043,inactive: -0.022,
ING1 (UniProt Q9UK53),inactive: -0.432,inactive: 0.031,inactive: 0.125,inactive: 0.054,inactive: -0.428,,,inactive: -0.193,,,inactive: 0.028,inactive: 0.131,,inactive: -0.146,,,inactive: 0.117,,inactive: 0.05,
INPP1 (UniProt P49441),inactive: -0.086,inactive: -0.019,inactive: 0.048,inactive: -0.123,inactive: -0.056,inactive: 0.101,inactive: -0.031,inactive: 0.03,inactive: -0.049,inactive: -0.116,inactive: 0.041,inactive: -0.016,inactive: -0.012,inactive: -0.028,inactive: -0.084,inactive: -0.043,inactive: -0.018,inactive: 0.052,,
ITPRIP (UniProt Q8IWB1),inactive: -0.042,inactive: -0.022,inactive: -0.024,inactive: 0.014,inactive: 0.012,inactive: -0.021,inactive: 0.018,inactive: -0.043,inactive: -0.038,inactive: 0.049,inactive: -0.002,inactive: 0.056,inactive: 0.012,inactive: -0.039,inactive: -0.049,inactive: 0.038,inactive: 0.062,inactive: -0.037,,
IGFBP2 (UniProt P18065),inactive: 0.117,inactive: -0.238,active: -0.846,inactive: 0.439,inactive: 0.11,inactive: -0.056,inactive: -0.228,inactive: 0.363,inactive: -0.025,inactive: -0.252,inactive: -0.205,inactive: -0.297,inactive: -0.051,inactive: -0.189,inactive: -0.475,inactive: 0.026,inactive: -0.305,inactive: -0.482,,
IER3IP1 (UniProt Q9Y5U9),inactive: 0.153,inactive: -0.159,inactive: -0.083,inactive: 0.006,inactive: -0.075,inactive: 0.003,,inactive: 0.038,inactive: 0.055,inactive: -0.052,inactive: -0.027,inactive: 0.157,inactive: -0.006,inactive: -0.264,inactive: 0.032,inactive: -0.078,inactive: -0.033,inactive: 0.137,inactive: -0.023,inactive: 0.036
IL27RA (UniProt Q6UWB1),inactive: -0.02,inactive: 0.065,inactive: -0.11,inactive: 0.113,inactive: -0.29,inactive: 0.047,inactive: -0.169,inactive: 0.207,inactive: 0.043,,inactive: -0.031,inactive: 0.029,active: 0.539,inactive: -0.121,,inactive: -0.109,inactive: 0.211,inactive: 0.043,,

# Exported with bars between the fields: part of the list above.
Target | log2 fold change [1] | log2 fold change (filanesib) | log2 fold change (zotarolimus) | log2 fold change (idasanutlin) | log2 fold change (alisertib) | log2 fold change [2] | log2 fold change (gefitinib) | log2 fold change [3] | log2 fold change (lapatinib) | log2 fold change (pictilisib) | log2 fold change [4] | log2 fold change (crizotinib) | log2 fold change [5] | log2 fold change [6] | log2 fold change (gandotinib) | log2 fold change [7] | log2 fold change (doramapimod) | log2 fold change (ispinesib) | log2 fold change (tozasertib) | log2 fold change (duvelisib)
ILVBL (UniProt A1L0T0) | inactive: -0.008 | inactive: 0.006 | inactive: 0.072 | inactive: -0.106 | inactive: -0.088 | inactive: -0.001 | inactive: 0.075 | inactive: 0.082 | inactive: -0.011 | inactive: 0.031 | inactive: 0.055 | inactive: 0 | inactive: 0.058 | inactive: 0.061 | inactive: 0.02 | inactive: -0.005 | inactive: -0.003 | active: 0.213 |  | 
ILK (UniProt Q13418) | active: -0.444 | inactive: 0.023 | inactive: -0.052 | inactive: 0.021 | inactive: 0.038 | inactive: 0.036 | inactive: 0.007 | inactive: 0 | inactive: -0.05 | inactive: 0.068 | inactive: 0.054 | inactive: 0.038 | inactive: -0.001 | inactive: 0.046 | inactive: -0.039 | inactive: -0.046 | inactive: -0.023 | inactive: -0.153 |  | 
